Assay [1] concerns the target recombinant human wild-type lamin A (human) (UniProt P02545). As to the kind of experiment: co-sedimentation; sucrose density gradient centrifugation; proteins dialysed alone or together from urea into 10 mM Tris-HCl pH 7.5, 1 mM DTT, 300 mM NaCl, 10% sucrose; 10% to 30% sucrose gradient on a 70% cushion, 20 hr at 190,000 x g, 4°C; fractions on Coomassie-stained gels; both purified.

Amino acid sequences for entries named in this document (tags omitted). Residues count along the entry.
UniProt P02545, residues 1-646: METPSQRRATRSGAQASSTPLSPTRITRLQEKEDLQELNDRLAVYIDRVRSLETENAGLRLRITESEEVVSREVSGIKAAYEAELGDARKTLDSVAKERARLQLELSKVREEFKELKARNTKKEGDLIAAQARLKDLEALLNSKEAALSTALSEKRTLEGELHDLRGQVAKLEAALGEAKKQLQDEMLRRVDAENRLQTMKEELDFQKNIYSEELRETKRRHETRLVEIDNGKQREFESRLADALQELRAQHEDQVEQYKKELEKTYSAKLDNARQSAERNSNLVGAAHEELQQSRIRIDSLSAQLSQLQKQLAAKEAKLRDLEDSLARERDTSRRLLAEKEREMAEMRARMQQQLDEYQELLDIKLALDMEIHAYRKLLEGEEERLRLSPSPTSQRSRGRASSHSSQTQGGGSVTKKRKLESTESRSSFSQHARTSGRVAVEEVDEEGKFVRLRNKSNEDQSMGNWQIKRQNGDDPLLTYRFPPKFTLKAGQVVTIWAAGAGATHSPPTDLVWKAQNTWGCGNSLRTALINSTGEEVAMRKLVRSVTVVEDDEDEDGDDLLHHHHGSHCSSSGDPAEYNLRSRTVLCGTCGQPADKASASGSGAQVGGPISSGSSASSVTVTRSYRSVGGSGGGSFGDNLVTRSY
UniProt P48678, residues 1-647: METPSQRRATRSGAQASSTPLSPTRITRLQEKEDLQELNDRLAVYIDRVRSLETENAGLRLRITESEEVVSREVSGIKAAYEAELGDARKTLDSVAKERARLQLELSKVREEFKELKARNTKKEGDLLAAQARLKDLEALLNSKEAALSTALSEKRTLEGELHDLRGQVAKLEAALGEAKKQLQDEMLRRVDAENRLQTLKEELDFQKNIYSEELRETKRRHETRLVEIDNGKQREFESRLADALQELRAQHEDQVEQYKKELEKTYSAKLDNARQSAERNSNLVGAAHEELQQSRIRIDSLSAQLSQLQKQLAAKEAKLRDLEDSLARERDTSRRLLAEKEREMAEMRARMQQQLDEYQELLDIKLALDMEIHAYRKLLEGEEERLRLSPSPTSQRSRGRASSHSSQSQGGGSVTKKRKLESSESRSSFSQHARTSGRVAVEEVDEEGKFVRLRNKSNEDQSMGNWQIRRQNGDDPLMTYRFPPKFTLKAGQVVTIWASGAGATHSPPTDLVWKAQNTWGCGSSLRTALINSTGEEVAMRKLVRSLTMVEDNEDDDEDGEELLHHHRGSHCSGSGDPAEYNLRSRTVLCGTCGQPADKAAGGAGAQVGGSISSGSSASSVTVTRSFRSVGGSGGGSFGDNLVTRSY

The target in assay [2] is lamin A/C (endogenous, mEos3.2-lamin A/C WT mouse dermal fibroblasts) (mouse (endogenous in mouse dermal fibroblasts)) (UniProt P48678). As to the kind of experiment: co-IP; soluble extract of mEos3.2-lamin A/C WT mouse fibroblasts (20 mM Tris-HCl pH7.5, 150 mM NaCl, 2 mM EGTA, 2 mM MgCl2, 0.5% NP-40, Benzonase); lamin A/C antibodies (N18, E1, pS22 D2B2E) overnight at 4°C, protein A/G dynabeads; blot for LAP2α (1H11); LAP2α and lamin A/C knockout cells as controls.

Assay [3] concerns the target pS22 lamin A/C (lamin A/C phosphorylated at serine 22; endogenous, mouse dermal fibroblasts) (mouse (endogenous in mouse dermal fibroblasts)) (UniProt P48678). The description is as above.

No constants are given. Whether binding was seen depends on the method and setting. For some of these results: In cells and extracts the contact can be indirect. Some binding calls cover weakened binding; strength is not graded here.

B1: truncation mutant LAP2α_(1-414) (domain or fragment, UniProt P42166 1-414)
chain: MPEFLEDPSVLTKDKLKSELVANNVTLPAGEQRKDVYVQLYLQHLTARNRPPLPAGTNSKGPPDFSSDEEREPTPVLGSGAAAAGRSRAAVGRKATKKTDKPRQEDKDDLDVTELTNEDLLDQLVKYGVNPGPIVGTTRKLYEKKLLKLREQGTESRSSTPLPTISSSAENTRQNGSNDSDRYSDNEEGKKKEHKKVKSTRDIVPFSELGTTPSGGGFFQGISFPEISTRPPLGSTELQAAKKVHTSKGDLPREPLVATNLPGRGQLQKLASERNLFISCKSSHDRCLEKSSSSSSQPEHSAMLVSTAASPSLIKETTTGYYKDIVENICGREKSGIQPLCPERSHISDQSPLSSKRKALEESESSQLISPPLAQAIRDYVNSLLVQGGVGSLPGTSNSMPPLDVENIQKRIDQ
Take B1: the binding entry in assay [1] was “no binding”.

B2: recombinant full-length human LAP2α (protein, UniProt P42166 1-694)
chain: MPEFLEDPSVLTKDKLKSELVANNVTLPAGEQRKDVYVQLYLQHLTARNRPPLPAGTNSKGPPDFSSDEEREPTPVLGSGAAAAGRSRAAVGRKATKKTDKPRQEDKDDLDVTELTNEDLLDQLVKYGVNPGPIVGTTRKLYEKKLLKLREQGTESRSSTPLPTISSSAENTRQNGSNDSDRYSDNEEGKKKEHKKVKSTRDIVPFSELGTTPSGGGFFQGISFPEISTRPPLGSTELQAAKKVHTSKGDLPREPLVATNLPGRGQLQKLASERNLFISCKSSHDRCLEKSSSSSSQPEHSAMLVSTAASPSLIKETTTGYYKDIVENICGREKSGIQPLCPERSHISDQSPLSSKRKALEESESSQLISPPLAQAIRDYVNSLLVQGGVGSLPGTSNSMPPLDVENIQKRIDQSKFQETEFLSPPRKVPRLSEKSVEERDSGSFVAFQNIPGSELMSSFAKTVVSHSLTTLGLEVAKQSQHDKIDASELSFPFHESILKVIEEEWQQVDRQLPSLACKYPVSSREATQILSVPKVDDEILGFISEATPLGGIQAASTESCNQQLDLALCRAYEAAASALQIATHTAFVAKAMQADISQAAQILSSDPSRTHQALGILSKTYDAASYICEAAFDEVKMAAHTMGNATVGRRYLWLKDCKINLASKNKLASTPFKGGTLFGGEVCKVIKKRGNKH
With B2, the binding result in assay [1] is recorded as “binds”.

B3: LAP2α (endogenous, mouse dermal fibroblasts) (natural protein, UniProt Q61033 1-693, looked up)
chain: MPEFLEDPSVLTKDKLKSELVANNVTLPAGEQRKDVYVQLYLQHLTARNRPPLAAGANSKGPPDFSSDEEREPTPVLGSGASVGRGRGAVGRKATKKTDKPRLEDKDDLDVTELSNEELLDQLVRYGVNPGPIVGTTRKLYEKKLLKLREQGTESRSSTPLPTVSSSAENTRQNGSNDSDRYSDNDEGKKKEHKKVKSARDCVPFSELASTPSGAFFQGISFPEISTRPPLGRTELQAAKKVQTTKRDPPRETCTDTALPGKGQTHKLAPGRSLFIPSESSYDRCVEKSSSPSSQREFAARLVSAAASPSLIRETTTTYSKDIVENICRGGKSRAQPLRAEEPGVSDQSVFSSEREVLQESERSQVISPPLAQAIRDYVNSLLVQGGVGSLPGTSDSVPTLDVENICKRLSQSSYQDSESLSPPRKVPRLSEKPARGGDSGSCVAFQNTPGSEHRSSFAKSVVSHSLTTLGVEVSKPPPQHDKIEASEPSFPLHESILKVVEEEWQQIDRQLPSVACRYPVSSIEAARILSVPKVDDEILGFISEATPRAATQASSTESCDKHLDLALCRSYEAAASALQIAAHTAFVAKSLQADISQAAQIINSDPSDAQQALRILNRTYDAASYLCDAAFDEVRMSACAMGSSTMGRRYLWLKDCKISPASKNKLTVAPFKGGTLFGGEVHKVIKKRGNKQ
notes: lamin-associated polypeptide 2 alpha (LAP2α), mouse, endogenous, detected with antibody 1H11; also called lamin-associated polypeptide 2 alpha; source: endogenous, mEos3.2-Lmna WT mouse dermal fibroblasts, soluble cell extract
B3: the binding result in assay [2] and in assay [3] was “binds” each time.

(Values after publication PMC7939549, “LAP2alpha maintains a mobile and low assembly state of A-type lamins in the nuclear interior” (eLife, 2021).)
